# The name of at least one read-out is uncertain. Marks after values point to notes of the source that are not given here.
# Tested on: K. pneumoniae ESBL Isolate KP453
# Assay: Murine kidney infection model, K. pneumoniae ESBL isolate KP453
# Type: in vivo
# Conditions: BALB/c mice, PO 50 mg/kg at 9 and 24 hours post infection
# Procedure: Kidney Infection Models for Uropathogenic E. coli EC200 and K. pneumoniae ESBL Isolate KP453
# Compounds were also tested in BALB/c murine kidney infection model challenged with levofloxacin-resistant, ESBL^+ strain KP453 via intravenous injection with 2% carageenen. At 9 and 24 hours post infection mice were treated orally with 50 mg/kg of test compound. For IV administration, test compounds were dosed at 20 mg/kg. At 36 hours following initiation of treatment, mice were euthanized and bacterial reduction in the kidney was quantified by plating homogenates. Results are reported in Table D as log10 reduction in colony forming units (CFUs) in the kidney versus untreated controls (receiving no test compound).
smiles,measurement,value
CN(C)c1c(CN2CCCCC2)cc(O)c2c1C[C@H]1C[C@H]3[C@H](N(C)C)C(O)=C(C(N)=O)C(=O)[C@@]3(O)C(O)=C1C2=O [Compound S16-10-161],"KP453 ESBL UTI PO, log10 reduction in CFUs in the kidney versus untreated controls",−1.07^a log10
